Source: PubChem BioAssay AID330 (DTP/NCI, 2004)
The list does not hold the whole screen: it covers a few groups of compounds. Not every dose and run of a compound is shown. T/C gives the treated animals as a percentage of the vehicle group. Where survival is the endpoint, the PubChem record calls one and a half times the control and up active, and a quarter to a half above the control has no call in these data; cut-offs in other NCI protocols can differ. Schedule codes are those of the source, taken here to give the interval after Q, in days (D) or hours (H), and the number of doses after X. Some entries show no survivor count and are marked so; the dose need not have been tolerated. Some entries were tested several times; the results are listed from low to high.

Tested on: P388 leukemia ip, CD2F1 mice, survival T/C
Test: NCI In Vivo Anticancer Drug Screen. Data for tumor model P388 Leukemia (intraperitoneal) in CD2F1 (CDF1) mice
Conditions: T/C endpoint: median survival time, schedule: Q01DX009 (ip), higher T/C = longer survival
[1] = dose: 0.15 mg/kg/injection, vehicle: saline + alcohol
[2] = dose: 0.31 mg/kg/injection, vehicle: saline + alcohol
[3] = dose: 0.62 mg/kg/injection, vehicle: saline + alcohol
[4] = dose: 1.25 mg/kg/injection, vehicle: saline + alcohol
[5] = dose: 2.5 mg/kg/injection, vehicle: saline + alcohol
[6] = dose: 5.0 mg/kg/injection, vehicle: saline + alcohol
[7] = dose: 10.0 mg/kg/injection, vehicle: saline + alcohol

| SMILES | T/C [1] | T/C [2] | T/C [3] | T/C [4] | T/C [5] | T/C [6] | T/C [7] | other results |
| --- | --- | --- | --- | --- | --- | --- | --- | --- |
| C[C@H](O)[C@H]1/C=C/C=C\C(=O)O[C@@H]2C[C@H]3O[C@@H]4[C@@H]5O[C@]5(C)CCC4(COC(=O)[C@H]4O[C@]4(C)[C@@H](O)CO1)[C@]2(C)[C@]31CO1 (stereo partly drawn) | 160 % of control [survivor count not shown] | 160 [survivor count not shown] and 179 % of control [survivor count not shown] | 159 [survivor count not shown], 163 [survivor count not shown], 207 % of control [survivor count not shown] | 156 [survivor count not shown], 169 [survivor count not shown], 188 % of control [survivor count not shown] | 226 [survivor count not shown] and 233 % of control [survivor count not shown] | 107 [survivor count not shown] and 233 % of control [survivor count not shown] | 86 % of control [survivor count not shown] | T/C (dose: 0.62 mg/kg/injection, vehicle: other): 151 % of control [survivor count not shown]; T/C (dose: 1.25 mg/kg/injection, vehicle: other): 225 % of control [survivor count not shown]; T/C (dose: 2.5 mg/kg/injection, vehicle: other): 177 % of control [survivor count not shown]; T/C (dose: 5.0 mg/kg/injection, vehicle: other): 239 % of control [survivor count not shown] |
| CC(=O)O[C@@H]1[C@@H](O)[C@H]2O[C@@H]3C=C(C)C(=O)[C@@H](O)[C@]3(CO)[C@]1(C)[C@]21CO1 | – | – | – | – | – | – | – | T/C (dose: 0.2 mg/kg/injection, vehicle: saline): 107 % of control [survivor count not shown]; T/C (dose: 0.4 mg/kg/injection, vehicle: saline): 109 % of control [survivor count not shown]; T/C (dose: 0.8 mg/kg/injection, vehicle: saline): 119 % of control [survivor count not shown]; T/C (dose: 1.6 mg/kg/injection, vehicle: saline): 127 % of control [survivor count not shown] |
| CC1=C[C@H]2O[C@@H]3[C@H](OC(=O)CCl)[C@@H](O)[C@](C)(C2(COC(=O)CCl)CC1)[C@@]31CO1 (stereo partly drawn) | – | – | – | – | – | – | – | T/C (dose: 0.75 mg/kg/injection, vehicle: saline + alcohol): 119 % of control [survivor count not shown]; T/C (dose: 1.0 mg/kg/injection, vehicle: saline with Tween-80): 155 % of control [survivor count not shown]; T/C (dose: 1.5 mg/kg/injection, vehicle: saline + alcohol): 128 % of control [survivor count not shown]; T/C (dose: 2.0 mg/kg/injection, vehicle: saline with Tween-80): 150 % of control [survivor count not shown]; T/C (dose: 3.0 mg/kg/injection, vehicle: saline + alcohol): 133 % of control [survivor count not shown]; T/C (dose: 12.0 mg/kg/injection, vehicle: saline + alcohol): 144 % of control [survivor count not shown] |
| CC1=CC2OC3CC4OC(=O)/C=C/C=C/C(=O)OCC/C(C)=C/C(=O)OCC2(CC1O)C4(C)C31CO1 (stereo not drawn) | 127 [survivor count not shown] and 133 % of control [survivor count not shown] | 144 [survivor count not shown] and 150 % of control [survivor count not shown] | 153 [survivor count not shown] and 169 % of control [survivor count not shown] | 153 [survivor count not shown] and 181 % of control [survivor count not shown] | 166 % of control [survivor count not shown] | – | – | – |
| CC1=CC2OC3CC4OC(=O)/C=C\C=C/C5OC(OC5C)C(O)/C(C)=C\C(=O)OCC2(CC1)C4(C)C31CO1 (stereo not drawn) | 112 % of control [survivor count not shown] | 119 % of control [survivor count not shown] | 125 % of control [survivor count not shown] | 140 % of control [survivor count not shown] | 149 % of control [survivor count not shown] | – | – | – |
| CC1CCOC(=O)/C=C/C=C/C(=O)OC2CC3OC4C(Br)C(C)(O)CCC4(COC(=O)C1O)C2(C)C31CO1 (stereo not drawn) | 105 % of control [survivor count not shown] | 93 % of control [survivor count not shown] | 97 % of control [survivor count not shown] | 121 % of control [survivor count not shown] | 112 % of control [survivor count not shown] | 123 % of control [survivor count not shown] | 133 % of control [survivor count not shown] | – |
